Measurements: publication PMC13082787
These are yes or no findings as the source states them, for the method shown. Tags and fused reporters may be left off the sequences shown.

Target: T1, Soluble YbjP (D28-R171) with an N-terminal His-tag (E. coli) (UniProt P75818)
T1 sequence: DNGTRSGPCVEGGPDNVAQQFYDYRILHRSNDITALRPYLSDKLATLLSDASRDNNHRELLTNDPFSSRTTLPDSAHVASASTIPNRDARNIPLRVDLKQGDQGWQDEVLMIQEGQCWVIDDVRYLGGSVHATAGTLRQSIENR
Experiment: pull-down; in vitro affinity pull-down with purified proteins; which partner was immobilised in the tests with Pal is not told; both purified

B1: Pal (peptidoglycan-associated protein) lipoprotein (protein, UniProt P0A912 22-173)
chain: CSSNKNASNDGSEGMLGAGTGMDANGGNGNMSSEEQARLQMQQLQQNNIVYFDLDKYDIRSDFAQMLDAHANFLRSNPSYKVTVEGHADERGTPEYNISLGERRANAVKMYLQGKGVSADQISIVSYGKEKPAVLGHDEAAYSKNRRAVLVY
Question: How did the binding turn out when B1 was run?
Answer: Its binding is “no binding”.
